# Library screen at single concentrations

Chains of the proteins cited; added tags and fusions are not shown. Residues count along the entry.
UniProt P9WNZ1, whole entry: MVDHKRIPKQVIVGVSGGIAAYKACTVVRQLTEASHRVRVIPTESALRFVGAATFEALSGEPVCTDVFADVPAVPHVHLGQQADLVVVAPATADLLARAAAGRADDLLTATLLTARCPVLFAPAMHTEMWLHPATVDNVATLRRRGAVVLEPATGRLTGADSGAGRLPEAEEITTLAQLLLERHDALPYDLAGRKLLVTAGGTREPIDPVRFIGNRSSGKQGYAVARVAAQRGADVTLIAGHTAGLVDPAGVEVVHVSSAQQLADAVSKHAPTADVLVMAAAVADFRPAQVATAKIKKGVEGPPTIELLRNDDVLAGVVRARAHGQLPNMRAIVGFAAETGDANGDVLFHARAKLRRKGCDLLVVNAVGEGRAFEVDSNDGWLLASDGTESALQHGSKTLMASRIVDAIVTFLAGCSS
UniProt P9WFT3, whole entry: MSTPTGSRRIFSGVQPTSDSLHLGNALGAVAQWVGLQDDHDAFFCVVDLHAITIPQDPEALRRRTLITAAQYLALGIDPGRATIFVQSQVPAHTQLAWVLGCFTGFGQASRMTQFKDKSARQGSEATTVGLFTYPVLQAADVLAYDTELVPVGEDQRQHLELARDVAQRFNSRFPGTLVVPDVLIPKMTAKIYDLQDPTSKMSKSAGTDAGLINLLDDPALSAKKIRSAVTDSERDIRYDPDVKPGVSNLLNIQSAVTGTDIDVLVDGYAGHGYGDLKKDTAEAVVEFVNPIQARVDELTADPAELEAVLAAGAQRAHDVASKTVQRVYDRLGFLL
UniProt P9WPC5, whole entry: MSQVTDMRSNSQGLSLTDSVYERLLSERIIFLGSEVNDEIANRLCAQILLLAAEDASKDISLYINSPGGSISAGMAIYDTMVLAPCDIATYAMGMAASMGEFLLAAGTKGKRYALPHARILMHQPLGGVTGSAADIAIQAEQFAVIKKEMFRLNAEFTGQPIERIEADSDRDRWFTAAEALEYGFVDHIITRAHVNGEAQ
UniProt P9WPC3, whole entry partner: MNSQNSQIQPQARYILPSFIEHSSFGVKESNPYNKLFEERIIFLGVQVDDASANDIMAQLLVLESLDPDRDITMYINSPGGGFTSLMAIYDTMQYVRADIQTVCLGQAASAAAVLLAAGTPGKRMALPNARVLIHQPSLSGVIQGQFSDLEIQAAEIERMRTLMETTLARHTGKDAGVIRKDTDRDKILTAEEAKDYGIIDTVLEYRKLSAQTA
UniProt A4I591, 1-473: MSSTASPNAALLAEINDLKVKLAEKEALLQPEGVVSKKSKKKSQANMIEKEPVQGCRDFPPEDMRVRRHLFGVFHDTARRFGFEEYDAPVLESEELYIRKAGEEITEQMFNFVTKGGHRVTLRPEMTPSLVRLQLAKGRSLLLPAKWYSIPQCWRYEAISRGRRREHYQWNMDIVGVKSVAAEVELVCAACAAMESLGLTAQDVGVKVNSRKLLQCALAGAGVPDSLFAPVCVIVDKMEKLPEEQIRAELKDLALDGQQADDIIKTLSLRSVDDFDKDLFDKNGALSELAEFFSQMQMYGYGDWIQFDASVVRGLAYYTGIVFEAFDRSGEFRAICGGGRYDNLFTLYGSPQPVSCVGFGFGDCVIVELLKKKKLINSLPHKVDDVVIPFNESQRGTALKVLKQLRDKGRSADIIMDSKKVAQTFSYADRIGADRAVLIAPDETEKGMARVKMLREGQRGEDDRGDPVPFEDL
UniProt Q4DA54, 1-478: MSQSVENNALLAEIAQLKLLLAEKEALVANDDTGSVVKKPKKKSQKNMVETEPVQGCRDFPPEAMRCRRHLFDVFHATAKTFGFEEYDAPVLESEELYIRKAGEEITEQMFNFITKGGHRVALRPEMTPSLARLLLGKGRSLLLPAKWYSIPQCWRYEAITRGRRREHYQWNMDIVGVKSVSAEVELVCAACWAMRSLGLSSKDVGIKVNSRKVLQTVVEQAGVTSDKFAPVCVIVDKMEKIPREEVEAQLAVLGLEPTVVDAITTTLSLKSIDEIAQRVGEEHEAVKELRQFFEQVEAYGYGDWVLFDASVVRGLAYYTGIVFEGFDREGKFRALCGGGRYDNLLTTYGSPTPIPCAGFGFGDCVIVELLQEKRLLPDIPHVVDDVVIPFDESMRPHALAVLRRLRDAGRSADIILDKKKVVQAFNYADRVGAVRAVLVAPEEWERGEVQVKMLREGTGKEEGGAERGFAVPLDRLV

Source: ChEMBL document CHEMBL3988442, “University of Dundee, Small-Polar-MMV Screening Library” (2021).

Each number is a percent effect as filed.
The controls that fix the scale are not given in the record; negative values are as filed.
Compounds were drawn at random from those tested, without regard to their results.
A dash means the value is not listed here; it may have been measured.

CoaBC: 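Enzyme assay of CoaBC with a phosphate dye (Biomol Green) read at 650 nm. Target: Coenzyme A biosynthesis protein CoaBC, Mycobacterium tuberculosis (UniProt P9WNZ1). Compounds at 30 µM. Higher reads as stronger inhibition, judged from the few compounds that gave an IC50. Most strong results did not repeat in a second test. Size under these conditions: about 67,000 compounds, about 40 of them at 50% or above in at least one test.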
MtTrpRS: 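Enzyme assay of tryptophanyl-tRNA synthetase; the read-out is not stated. Target: Tryptophan-tRNA ligase, Mycobacterium tuberculosis (UniProt P9WFT3). Compounds at 10 µM. Direction is not recorded; retested compounds ran higher, which suggests that high means inhibition. Of about 65,000 compounds tested this way, about 64 (0.098%) reached 50% or more in at least one test.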
ClpP1P2: 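ClpP1P2, Mycobacterium tuberculosis (UniProt P9WPC5 and UniProt P9WPC3). Protease assay of ClpP1P2, read by the AMC dye that it sets free. Compounds at 50 µM. Direction is inferred from only a few compounds that gave an IC50; most scored high, so higher reads as stronger inhibition. Most other retested compounds had strongly negative values. About 69,000 compounds were tested under these conditions; 0.015% (about 10) showed 50% or more at least once.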
LiHisRS: 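Histidine-tRNA ligase, Leishmania infantum (UniProt A4I591). Enzyme assay of histidyl-tRNA synthetase; the read-out is not stated. Concentration: 30 µM. Higher reads as stronger inhibition (inferred: compounds with an IC50 in retests scored well above the rest). The assay is labelled LdHisRS but filed under L. infantum. About 69,000 compounds were tested under these conditions; 0.6% (about 410) showed 50% or more at least once.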
TcHisRS: 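Enzyme assay of histidyl-tRNA synthetase; the read-out is not stated. Target: Histidine-tRNA ligase, Trypanosoma cruzi CL Brener (UniProt Q4DA54). Concentration: 30 µM. Higher reads as stronger inhibition (inferred: compounds with an IC50 in retests scored well above the rest). Size under these conditions: about 69,000 compounds, about 31 of them at 50% or above in at least one test.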

compound | CoaBC | MtTrpRS | ClpP1P2 | LiHisRS | TcHisRS
CNC(=O)c1nc2c(s1)CCN(C(=O)Cc1ccc(OC)cc1)CC2 | 6.427 | -1.482 | 4.427 | 4.511 | 2.762
O=C1CN(c2ccc(CNC(=O)NCCO)cc2)CCN1 | 2.71 | -4.382 | -11.34 | 12.17 | 1.724
CCC(NCc1cc[nH]n1)c1nc(C(F)(F)F)cs1 (stereo not drawn) | 0.4274 | -4.069 | -6.827 | 8.547 | 2.703
COc1cc(C(=O)N(C)C)ccc1NC(=O)c1ccsc1 | 2.934 | -4.777 | -6.503 | 8.065 | 2.062
COc1ccccc1-c1noc(CCC(=O)NC(C)Cn2cccn2)n1 (stereo not drawn) | -4.092 | 0 | -10.05 | 13.11 | 4.04
O=C(O)C(c1ccc2c(c1)OCCO2)N1CCSCC1 (stereo not drawn) | 0.2571 | 1.859 | 1.586 | 8.333 | 7.821
COc1ccccc1CC(C)CC(=O)O (stereo not drawn) | 10.94 | 0.89 | -1.88 | 14.61 | 7.772
Cc1ccc(F)c(OC2(C(=O)O)CCN(C(=O)C3CCCC3)CC2)c1 | 2.303 | -0.404 | -7.484 | 4.839 | 2.041
O=C(NCc1cc(O)ncn1)C1CCOc2ccccc2C1 (stereo not drawn) | -6.579 | -0.5848 | 4.341 | 19.05 | 3.306
CS(=O)(=O)NC1CCN(C(=O)NCCNc2ccccn2)CC1 | 5.059 | -2.43 | 2.25 | -3.077 | -0.3831
CC(C)[C@H]1CN(Cc2nccn2C)C[C@@H]1NC(=O)CCS(C)(=O)=O | 4.317 | 2.21 | -8.521 | 5 | 0.8696
Cc1occc1C(=O)N1CCC2(CCC(C(=O)NCC3CC3)O2)CC1 (stereo not drawn) | 1.209 | 3.74 | 11.73 | 19.51 | 2.256
CC(C)NC(=O)N1CCCC2(CCN(c3ccsc3)C2=O)C1 (stereo not drawn) | 2.188 | -5.087 | -6.705 | 9.615 | -0.9709
COCCN1CCN(CC(O)c2cc(OC)ccc2OC)CC1 (stereo not drawn) | 5.423 | -0.7498 | 5.445 | 15.62 | 2.128
COc1ccc(C(C)Nc2cnn(C)c(=O)c2Cl)cc1OC (stereo not drawn) | 5.949 | 2.441 | -6.611 | 17.5 | 11.18
Cc1cc(CN2CCC3(CC2)CC(Nc2ncccn2)CO3)nn1C (stereo not drawn) | 5.25 | -1.928 | 12.2 | 12.35 | -4.294
Cc1ccc(CN2CCN(Cc3nccn3C)[C@H]3CS(=O)(=O)C[C@H]32)o1 | 6.667 | -7.361 | 0.366 | 16.78 | 5.473
CNc1cncc(C2CCCN2S(=O)(=O)c2ccccc2)n1 (stereo not drawn) | 7.056 | -0.8696 | -24.01 | -3.158 | 6.716
Cc1ccc(CNCc2nnc3n2CCCC3C(F)(F)F)o1 (stereo not drawn) | -8.482 | -1.954 | 8.223 | 4.854 | 7.054
COc1ccc(S(=O)(=O)NC(=O)COc2ccc3c(c2)CCC3)cc1 | -5.263 | 0.2674 | -10.48 | -34.26 | -1.466
COc1ccc(Cn2cc(C(C)O)nn2)cc1 (stereo not drawn) | 0 | 10.15 | -8.746 | 6.25 | -1.042
COCC(=O)N1CCCC2(CCN(c3ccsc3)C2=O)C1 (stereo not drawn) | 15.54 | 1.41 | 3.026 | 0.7299 | 7.104
O=C(Cn1cc(C2CC2)nn1)N(Cc1cccs1)CC1CCCO1 (stereo not drawn) | -13.62 | -1.519 | 14.55 | 13.51 | 3.333
O=C(O)c1ccc(=O)n(CC(c2ccc(F)cc2)N2CCCCCC2)c1 (stereo not drawn) | 0 | -10.23 | 7.361 | 17.39 | 5.303
COc1ncccc1NC(=O)N1CCOCC1C (stereo not drawn) | 9.504 | -1.838 | 2.651 | 34.67 | -0.5435
COCC1c2nnn(CC3CC3)c2CCN1C(=O)c1cc(C)on1 (stereo not drawn) | 14.95 | -2.804 | 3.201 | 22.37 | 1.087
Cc1noc(C)c1CNCC1CNc2ccnn2C1 (stereo not drawn) | 13.19 | 0.784 | -1.539 | 6.667 | 2.609
CC(=O)Nc1ccc(Oc2cc(C)nc(C3CCNCC3)c2)cc1 | -19.37 | 0.8486 | -1.249 | 16.78 | 3.955
COC(=O)[C@@H]1Cc2ncn(C)c2CN1S(=O)(=O)Cc1ccccc1 | 6.09 | -0.5339 | -1.223 | 10.81 | 0.4975
CN(CC(=O)N1CCCC(n2ccnc2)C1)c1cnccn1 (stereo not drawn) | 1.576 | -0.6734 | -16.51 | 6.452 | 5.102
O=C(c1ccno1)N1CCC2(CC1)C(=O)N(CC1CC1)c1ccccc12 | -3.386 | -1.603 | 4.946 | 12.2 | -1.504
CCNC(=O)c1ccc2c(c1)nc1n2CCN(C(C)C)C1 | -6.316 | -1.296 | -19.75 | -2.759 | 1.775
O=S(=O)(NCc1ccccc1)NCc1nc(-c2ccncc2)n[nH]1 | -1.72 | 0.9709 | -9.045 | 5.556 | 2.353
COC(=O)CNC(=O)CSCc1nc(O)c2c(C)c(C)sc2n1 | 3.634 | -6.231 | -8.141 | 7.767 | -6.011
O=C1CC(c2ncc(-c3ccc4c(c3)OCCO4)[nH]2)CN1C1CCCC1 (stereo not drawn) | 2.857 | 3.028 | -7.848 | 0 | 3.093
Cc1nn(C2CCCCC2)c2nc(C(C)(C)CN3CCOCC3)[nH]c12 | 5.178 | 0.3028 | -8.875 | 5.882 | 4.02
Cc1cc(=O)n2nc(Oc3cccc(I)c3)sc2n1 | 7.905 | 0.9181 | -12.77 | 32.53 | 6.468
Cc1cc(C)c2c(c1)C1(CC(=O)Nc3c1cnn3C(C)C)C(=O)N2 (stereo not drawn) | -0.4038 | -1.407 | 5.643 | 7.767 | 1.639
CCc1nnc2n1CCN(C(=O)C(C)Oc1ccc(C#N)cc1)C2 (stereo not drawn) | -1.517 | -0.784 | 3.699 | 5 | 0.8696
O=C(c1ccc2c(c1)OCCO2)N1CCCC(n2ccnc2)C1 (stereo not drawn) | 3.435 | 2.173 | -0.1322 | -13.04 | -3.38
CN(CC1COc2ccccc2O1)C(=O)NCCCn1ccnc1 (stereo not drawn) | 1.596 | -0.4717 | 3.508 | 2.4 | 4.183
CCOc1ccc2nc(CN3CCC(CNC(C)=O)C3)ccc2c1 (stereo not drawn) | 9.237 | 3.913 | -6.949 | 37.31 | 1.064
Cc1ccc(O[C@@H]2C[C@H]3CN(C(=O)c4cccnc4)CCN3C2)cc1 | -3.609 | -4.439 | -0.2514 | 2.655 | 5.6
Cc1occc1C(=O)N1CCC2(CC1)NC(=O)CC2c1cnn(C)c1 (stereo not drawn) | 10.54 | -0.4359 | -5.703 | 7.519 | 0.5525
CN(Cc1nnc2n1CCC2)C(=O)Cc1ccc2c(c1)OCCO2 | 1.068 | 1.174 | 18.16 | 40.48 | 2.256
CN1C[C@H](O)[C@]2(CCN(Cc3ccc(F)c(F)c3)C2)S1(=O)=O | -0.3681 | - | -15.8 | 10.31 | -1.156
Cc1n[nH]cc1CNC1(Cc2ccc(Br)cc2)CCCCC1 | -14.67 | -2.861 | -0.4043 | 5.479 | 7.937
c1ncc2c(n1)CN(Cc1nc(-c3ccoc3)no1)CC2 | 5.627 | -3.016 | -56.1 | 34.86 | 14.12
CNS(=O)(=O)c1ccc(C(=O)N2CCCC(n3cccn3)C2)cc1 (stereo not drawn) | 0.5319 | -1.258 | 2.381 | 10.4 | 0.3802
CSCCN1CCC(NC(=O)OC(C)(C)C)CC1 | 10.58 | 0.5038 | -2.306 | -2.857 | 3.061
O=S(=O)(NC(CO)Cc1c[nH]c2ccccc12)c1cncc(F)c1 (stereo not drawn) | - | 0.516 | 1.357 | 11.43 | 7.792
CCc1ccc(C(COC)NC(=O)c2ccsc2)o1 (stereo not drawn) | -4.707 | -0.5735 | -16.04 | 5.31 | 1.754
O=C(CN1CCOC1=O)N1CCc2nnc(-c3ccccc3)n2CC1 | 2.317 | 3.179 | 3.099 | 10.99 | 12.65
CCC(Nc1ncccn1)c1cccnc1 (stereo not drawn) | 10.49 | 17.74 | -36.6 | 11.67 | -1.136
COc1cccc(COCC(=O)N2CCC(CC(N)=O)CC2)c1 | 1.862 | -2.516 | 6.061 | 12 | 3.422
CC(=O)N1CCN(CCNS(=O)(=O)c2cccc(F)c2)CC1 | 3.49 | -1.467 | 8.383 | 17.98 | 7.538
COCC(=O)NS(=O)(=O)c1ccc(F)c(F)c1 | 1.266 | -3.193 | -6.724 | 19.48 | 3.448
CC(C)c1n[nH]c(C2CN(C(=O)COCC(F)(F)F)CCO2)n1 (stereo not drawn) | 3.269 | 2.955 | -9.962 | 16.3 | 1.98
CCS(=O)(=O)NCC(=O)NC1(C)CCc2ccccc2C1 (stereo not drawn) | 1.887 | -2.857 | -22.95 | 5.31 | 2.679
O=S(=O)(NC1=NCN(CCc2cccs2)CN1)c1ccc(Br)cc1 | 0.7576 | 3.011 | -3.424 | 15.79 | 0.5848
CC(NC(=O)CNc1cc2c(cc1Cl)NC(=O)CO2)c1ccco1 (stereo not drawn) | 10.98 | -2.168 | 9.734 | -0.885 | 1.327

4 of the entries, repeated:

| compound | CoaBC | MtTrpRS | ClpP1P2 | LiHisRS | TcHisRS |
|---|---|---|---|---|---|
| `O=C1CN(c2ccc(CNC(=O)NCCO)cc2)CCN1` | 2.71 | -4.382 | -11.34 | 12.17 | 1.724 |
| `O=C(Cn1cc(C2CC2)nn1)N(Cc1cccs1)CC1CCCO1` (stereo not drawn) | -13.62 | -1.519 | 14.55 | 13.51 | 3.333 |
| `COCC1c2nnn(CC3CC3)c2CCN1C(=O)c1cc(C)on1` (stereo not drawn) | 14.95 | -2.804 | 3.201 | 22.37 | 1.087 |
| `COc1ccc(C(C)Nc2cnn(C)c(=O)c2Cl)cc1OC` (stereo not drawn) | 5.949 | 2.441 | -6.611 | 17.5 | 11.18 |